Test results reported in article PMC10042811.
These are yes or no findings as the source states them, for the method shown. In cells and extracts the contact can be indirect. A yes stands for co-enrichment or nearness to the bait. Other partners may have been found.

Amino acid sequences for entries named in this document (tags omitted).
UniProt O95425: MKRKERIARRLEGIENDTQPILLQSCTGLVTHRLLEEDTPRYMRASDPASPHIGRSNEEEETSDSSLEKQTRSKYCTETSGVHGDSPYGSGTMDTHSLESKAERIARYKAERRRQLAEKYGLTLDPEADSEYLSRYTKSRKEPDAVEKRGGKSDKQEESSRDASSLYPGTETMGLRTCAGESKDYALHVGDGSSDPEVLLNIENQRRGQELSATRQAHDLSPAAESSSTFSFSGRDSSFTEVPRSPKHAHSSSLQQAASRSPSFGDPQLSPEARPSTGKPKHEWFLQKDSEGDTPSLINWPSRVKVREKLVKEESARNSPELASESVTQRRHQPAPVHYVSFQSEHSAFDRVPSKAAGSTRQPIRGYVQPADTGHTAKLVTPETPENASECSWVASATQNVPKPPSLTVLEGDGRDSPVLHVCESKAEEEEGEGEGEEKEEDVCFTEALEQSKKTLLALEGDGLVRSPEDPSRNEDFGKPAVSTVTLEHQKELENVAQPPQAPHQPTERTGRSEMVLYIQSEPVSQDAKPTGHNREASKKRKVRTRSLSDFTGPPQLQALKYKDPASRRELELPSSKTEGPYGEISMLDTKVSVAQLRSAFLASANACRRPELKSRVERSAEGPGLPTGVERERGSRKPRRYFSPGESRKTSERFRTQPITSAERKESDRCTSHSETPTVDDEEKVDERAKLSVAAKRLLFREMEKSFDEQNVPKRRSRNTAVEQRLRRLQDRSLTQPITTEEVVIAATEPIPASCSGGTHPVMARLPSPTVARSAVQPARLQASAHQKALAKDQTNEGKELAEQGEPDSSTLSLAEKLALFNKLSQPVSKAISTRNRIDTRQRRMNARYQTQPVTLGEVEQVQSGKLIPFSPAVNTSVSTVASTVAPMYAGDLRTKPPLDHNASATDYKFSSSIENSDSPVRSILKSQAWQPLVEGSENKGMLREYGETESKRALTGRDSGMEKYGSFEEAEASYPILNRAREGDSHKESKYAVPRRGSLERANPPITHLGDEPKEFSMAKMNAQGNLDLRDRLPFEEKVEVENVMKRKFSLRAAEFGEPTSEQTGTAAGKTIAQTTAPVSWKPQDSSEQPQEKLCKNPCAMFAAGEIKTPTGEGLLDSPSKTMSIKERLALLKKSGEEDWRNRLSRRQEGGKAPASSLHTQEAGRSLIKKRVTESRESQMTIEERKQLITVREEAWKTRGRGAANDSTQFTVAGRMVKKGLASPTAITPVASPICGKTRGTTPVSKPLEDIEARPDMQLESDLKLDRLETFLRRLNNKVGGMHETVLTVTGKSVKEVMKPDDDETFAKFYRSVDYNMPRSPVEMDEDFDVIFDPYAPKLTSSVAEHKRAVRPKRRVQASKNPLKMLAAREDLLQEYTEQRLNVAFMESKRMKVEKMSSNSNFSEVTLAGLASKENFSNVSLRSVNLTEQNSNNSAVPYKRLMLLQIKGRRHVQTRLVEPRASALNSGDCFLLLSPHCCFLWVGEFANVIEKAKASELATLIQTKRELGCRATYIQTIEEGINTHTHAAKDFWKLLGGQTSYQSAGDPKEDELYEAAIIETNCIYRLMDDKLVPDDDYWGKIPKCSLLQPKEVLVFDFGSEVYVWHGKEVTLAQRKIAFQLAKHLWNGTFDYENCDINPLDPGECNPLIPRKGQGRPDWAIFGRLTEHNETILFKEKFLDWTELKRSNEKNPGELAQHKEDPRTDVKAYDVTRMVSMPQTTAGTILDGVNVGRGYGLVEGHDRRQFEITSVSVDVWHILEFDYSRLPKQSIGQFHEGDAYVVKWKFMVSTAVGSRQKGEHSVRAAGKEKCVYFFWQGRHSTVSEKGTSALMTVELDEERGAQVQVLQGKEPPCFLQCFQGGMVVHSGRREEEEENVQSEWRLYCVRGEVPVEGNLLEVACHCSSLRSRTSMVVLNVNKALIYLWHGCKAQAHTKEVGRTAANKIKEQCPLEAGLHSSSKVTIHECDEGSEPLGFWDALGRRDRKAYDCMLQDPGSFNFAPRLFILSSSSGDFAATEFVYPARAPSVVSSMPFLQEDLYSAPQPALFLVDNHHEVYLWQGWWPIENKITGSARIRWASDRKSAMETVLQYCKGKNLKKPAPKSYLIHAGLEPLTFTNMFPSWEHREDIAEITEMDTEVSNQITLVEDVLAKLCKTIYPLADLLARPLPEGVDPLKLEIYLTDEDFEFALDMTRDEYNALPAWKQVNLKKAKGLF
UniProt Q03164: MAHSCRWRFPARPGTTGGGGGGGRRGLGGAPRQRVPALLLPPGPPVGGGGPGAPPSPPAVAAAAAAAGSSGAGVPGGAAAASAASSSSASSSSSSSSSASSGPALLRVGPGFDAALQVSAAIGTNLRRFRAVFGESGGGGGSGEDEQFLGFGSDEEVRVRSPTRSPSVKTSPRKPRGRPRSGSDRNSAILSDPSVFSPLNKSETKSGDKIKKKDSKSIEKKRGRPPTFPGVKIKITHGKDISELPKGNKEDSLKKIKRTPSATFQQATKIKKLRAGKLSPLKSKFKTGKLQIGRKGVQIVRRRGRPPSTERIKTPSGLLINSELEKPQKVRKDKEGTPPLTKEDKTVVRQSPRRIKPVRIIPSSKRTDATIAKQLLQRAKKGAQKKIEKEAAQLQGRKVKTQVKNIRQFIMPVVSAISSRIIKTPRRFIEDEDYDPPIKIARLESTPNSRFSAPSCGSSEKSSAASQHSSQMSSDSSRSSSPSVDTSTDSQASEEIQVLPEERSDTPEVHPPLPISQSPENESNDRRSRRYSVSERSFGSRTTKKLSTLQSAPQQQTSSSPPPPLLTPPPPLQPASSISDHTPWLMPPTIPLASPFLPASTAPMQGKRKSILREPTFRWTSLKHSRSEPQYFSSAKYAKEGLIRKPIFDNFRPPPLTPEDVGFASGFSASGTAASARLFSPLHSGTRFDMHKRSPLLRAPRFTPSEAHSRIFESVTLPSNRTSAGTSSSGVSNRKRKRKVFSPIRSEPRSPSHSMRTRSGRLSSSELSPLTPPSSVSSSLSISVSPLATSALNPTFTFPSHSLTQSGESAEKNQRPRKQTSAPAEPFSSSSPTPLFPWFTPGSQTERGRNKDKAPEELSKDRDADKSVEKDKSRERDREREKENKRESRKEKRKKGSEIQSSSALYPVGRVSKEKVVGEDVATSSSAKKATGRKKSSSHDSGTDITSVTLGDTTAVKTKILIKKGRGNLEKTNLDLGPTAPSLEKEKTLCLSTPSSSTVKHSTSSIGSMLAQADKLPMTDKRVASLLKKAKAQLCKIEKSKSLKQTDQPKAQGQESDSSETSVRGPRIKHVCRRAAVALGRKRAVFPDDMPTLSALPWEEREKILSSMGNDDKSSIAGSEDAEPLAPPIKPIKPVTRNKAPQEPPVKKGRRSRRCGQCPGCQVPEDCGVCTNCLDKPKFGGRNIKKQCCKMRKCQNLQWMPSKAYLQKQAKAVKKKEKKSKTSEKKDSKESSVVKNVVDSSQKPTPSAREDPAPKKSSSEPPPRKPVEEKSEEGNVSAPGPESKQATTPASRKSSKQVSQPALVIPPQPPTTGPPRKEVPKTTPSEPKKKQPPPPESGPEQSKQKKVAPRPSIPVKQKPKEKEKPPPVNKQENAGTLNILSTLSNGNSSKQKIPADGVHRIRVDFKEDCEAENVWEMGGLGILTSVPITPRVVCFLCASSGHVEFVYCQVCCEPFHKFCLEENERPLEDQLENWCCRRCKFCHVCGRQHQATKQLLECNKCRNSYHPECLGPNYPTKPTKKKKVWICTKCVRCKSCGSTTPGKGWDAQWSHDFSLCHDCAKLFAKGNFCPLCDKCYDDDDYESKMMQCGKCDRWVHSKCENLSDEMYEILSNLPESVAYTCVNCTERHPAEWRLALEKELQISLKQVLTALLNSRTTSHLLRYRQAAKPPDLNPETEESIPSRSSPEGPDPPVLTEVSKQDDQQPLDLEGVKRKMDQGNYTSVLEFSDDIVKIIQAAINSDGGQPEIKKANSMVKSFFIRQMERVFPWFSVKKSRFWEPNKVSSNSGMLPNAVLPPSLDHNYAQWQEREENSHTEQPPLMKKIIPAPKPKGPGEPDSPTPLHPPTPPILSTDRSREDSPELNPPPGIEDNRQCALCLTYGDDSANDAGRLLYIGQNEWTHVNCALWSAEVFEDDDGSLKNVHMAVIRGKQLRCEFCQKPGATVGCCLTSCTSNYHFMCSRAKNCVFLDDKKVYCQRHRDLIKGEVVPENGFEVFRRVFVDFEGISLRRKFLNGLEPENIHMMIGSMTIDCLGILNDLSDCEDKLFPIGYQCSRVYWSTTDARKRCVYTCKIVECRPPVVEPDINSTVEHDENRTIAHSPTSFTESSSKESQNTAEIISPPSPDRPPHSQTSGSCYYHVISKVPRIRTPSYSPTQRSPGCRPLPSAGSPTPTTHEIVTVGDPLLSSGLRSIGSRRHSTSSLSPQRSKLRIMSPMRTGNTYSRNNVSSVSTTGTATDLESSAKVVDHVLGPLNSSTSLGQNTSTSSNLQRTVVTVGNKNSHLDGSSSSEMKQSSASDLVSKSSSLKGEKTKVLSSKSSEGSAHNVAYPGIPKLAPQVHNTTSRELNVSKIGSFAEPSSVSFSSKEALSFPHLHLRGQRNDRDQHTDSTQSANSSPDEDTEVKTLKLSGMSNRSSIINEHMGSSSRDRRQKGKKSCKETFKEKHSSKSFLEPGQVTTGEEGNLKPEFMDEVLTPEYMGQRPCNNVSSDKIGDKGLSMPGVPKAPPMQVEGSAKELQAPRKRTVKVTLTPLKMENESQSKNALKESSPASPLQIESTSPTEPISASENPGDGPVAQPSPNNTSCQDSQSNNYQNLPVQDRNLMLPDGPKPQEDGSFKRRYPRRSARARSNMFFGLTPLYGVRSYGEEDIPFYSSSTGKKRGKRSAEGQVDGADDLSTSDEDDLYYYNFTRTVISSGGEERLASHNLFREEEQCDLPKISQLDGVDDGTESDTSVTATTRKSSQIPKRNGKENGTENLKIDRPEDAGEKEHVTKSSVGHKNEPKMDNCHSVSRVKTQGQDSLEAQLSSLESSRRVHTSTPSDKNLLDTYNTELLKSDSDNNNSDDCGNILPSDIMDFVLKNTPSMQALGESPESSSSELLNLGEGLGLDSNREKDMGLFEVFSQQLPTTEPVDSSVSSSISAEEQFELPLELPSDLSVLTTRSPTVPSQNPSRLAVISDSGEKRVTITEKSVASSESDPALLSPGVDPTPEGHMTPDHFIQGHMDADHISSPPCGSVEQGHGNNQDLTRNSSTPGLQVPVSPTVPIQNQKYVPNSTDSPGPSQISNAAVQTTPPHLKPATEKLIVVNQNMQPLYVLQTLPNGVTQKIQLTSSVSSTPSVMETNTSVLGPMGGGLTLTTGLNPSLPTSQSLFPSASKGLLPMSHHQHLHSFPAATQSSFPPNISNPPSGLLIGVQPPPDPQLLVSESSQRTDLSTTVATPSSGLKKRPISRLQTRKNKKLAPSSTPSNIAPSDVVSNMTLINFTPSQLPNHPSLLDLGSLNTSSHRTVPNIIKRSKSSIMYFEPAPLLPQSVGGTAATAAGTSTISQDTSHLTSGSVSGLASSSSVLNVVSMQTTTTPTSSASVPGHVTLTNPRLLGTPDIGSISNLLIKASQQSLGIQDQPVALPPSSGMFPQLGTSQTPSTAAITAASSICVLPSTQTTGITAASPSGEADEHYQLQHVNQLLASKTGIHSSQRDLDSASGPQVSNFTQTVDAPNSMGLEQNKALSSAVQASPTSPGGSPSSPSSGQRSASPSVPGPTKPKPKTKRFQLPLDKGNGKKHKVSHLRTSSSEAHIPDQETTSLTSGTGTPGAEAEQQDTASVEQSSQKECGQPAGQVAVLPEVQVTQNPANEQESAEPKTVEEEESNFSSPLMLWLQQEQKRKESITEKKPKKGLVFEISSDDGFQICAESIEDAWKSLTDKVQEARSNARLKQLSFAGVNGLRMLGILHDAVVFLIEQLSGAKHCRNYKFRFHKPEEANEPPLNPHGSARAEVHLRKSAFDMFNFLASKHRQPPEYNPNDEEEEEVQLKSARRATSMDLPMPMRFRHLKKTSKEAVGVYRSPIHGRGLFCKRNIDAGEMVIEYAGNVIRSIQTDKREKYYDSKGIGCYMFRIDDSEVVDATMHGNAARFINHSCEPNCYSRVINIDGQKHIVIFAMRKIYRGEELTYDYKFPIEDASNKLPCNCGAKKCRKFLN

Molecular target: endogenous SVIL of LFS astrocytes (human (endogenous in LFS iPSC-derived astrocytes)) (UniProt O95425)
Assay: affinity purification with mass spectrometry; IP-MS of SVIL-associated proteins in LFS astrocytes

- binding: binds
Substance: endogenous MLL1 (lysine methyltransferase 2A) of LFS astrocytes (from UniProt Q03164 1-3969)
